Results are given in words; binding and its absence hold for the method and conditions named. Some entries that bind do so weakly or less than the wild type.

Amino acid sequences for entries named in this document (tags omitted). Residues count along the entry.
UniProt P10637, residues 2-733: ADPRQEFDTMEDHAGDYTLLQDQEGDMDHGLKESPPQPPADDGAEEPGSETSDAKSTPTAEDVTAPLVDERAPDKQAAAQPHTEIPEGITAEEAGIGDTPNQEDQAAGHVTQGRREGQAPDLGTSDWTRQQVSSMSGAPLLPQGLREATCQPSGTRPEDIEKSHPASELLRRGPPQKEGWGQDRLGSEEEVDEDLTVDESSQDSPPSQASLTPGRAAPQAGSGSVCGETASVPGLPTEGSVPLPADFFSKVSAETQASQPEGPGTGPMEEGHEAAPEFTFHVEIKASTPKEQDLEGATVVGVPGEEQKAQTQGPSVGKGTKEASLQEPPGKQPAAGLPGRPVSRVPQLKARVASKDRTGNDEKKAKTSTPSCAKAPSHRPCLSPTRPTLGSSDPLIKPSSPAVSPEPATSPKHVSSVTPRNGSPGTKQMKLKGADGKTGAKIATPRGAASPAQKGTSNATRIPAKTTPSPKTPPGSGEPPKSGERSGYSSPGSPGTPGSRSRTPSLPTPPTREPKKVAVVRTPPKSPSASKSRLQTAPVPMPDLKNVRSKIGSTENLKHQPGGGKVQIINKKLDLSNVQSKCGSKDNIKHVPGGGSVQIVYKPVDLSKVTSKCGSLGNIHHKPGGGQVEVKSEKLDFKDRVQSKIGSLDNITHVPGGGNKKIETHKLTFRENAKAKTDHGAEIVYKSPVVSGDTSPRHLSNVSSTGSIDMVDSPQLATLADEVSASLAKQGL

The target in the assay is T1, Nucleolysin TIA-1 (endogenous mouse TIA1) (mouse) (UniProt P52912).
T1 sequence (looked up): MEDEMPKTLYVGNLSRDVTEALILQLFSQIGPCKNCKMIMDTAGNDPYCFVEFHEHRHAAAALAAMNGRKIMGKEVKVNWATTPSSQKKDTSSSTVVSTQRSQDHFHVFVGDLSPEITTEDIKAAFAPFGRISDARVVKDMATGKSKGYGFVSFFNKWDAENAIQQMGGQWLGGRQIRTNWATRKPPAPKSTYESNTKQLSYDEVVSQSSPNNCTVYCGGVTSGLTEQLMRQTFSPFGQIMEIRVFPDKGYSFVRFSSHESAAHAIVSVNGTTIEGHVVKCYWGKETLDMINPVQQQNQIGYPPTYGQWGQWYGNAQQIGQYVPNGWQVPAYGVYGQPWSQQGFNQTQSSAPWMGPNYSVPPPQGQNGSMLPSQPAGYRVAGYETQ
The assay can be described thus: TIA1 IP, LC-MS/MS and immunoblot, mouse cortex.

As for “Microtubule-associated protein tau (endogenous mouse tau) (from UniProt P10637 2-733)”, the binding result is “binds”.
